Data as given in PubChem BioAssay AID1259308 (NCATS, 2017).
In all, the deposit lists about 59,000 reagents; this is an unselected part. Of all reagents, about 1,510 (2.6%) were called active. 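Calls use total luciferase alone and ignore viability, so some active siRNAs may act by altering cell number.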 The numbers tell different reagents against one gene apart. Not all columns of the deposit are shown.

- Test: 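Candidate targets for better recombinant protein yield in mammalian cells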 (primary screen)
- Cell system: human HEK293 embryonic kidney cells stably expressing firefly luciferase (HEK-CMV-Luc2-Hygro)
- Reagent: single siRNA against human genes, 0.8 pmol siRNA per well
- Duration: 72 h
- Measured: 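Reporter luminescence and viable-cell signal on separate replicate plates, given as percent of non-targeting control and median/MAD z-scores, plus per-cell luciferase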
- Scale: total luciferase, z-score: higher = more reporter protein produced
- Hit rule: 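Active when the median/MAD z-score for overall luciferase is greater than 3; a gene was taken forward for validation with new siRNAs if at least two of its three siRNAs passed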
- Calls: active = raised luciferase; inactive = no rise

no.	Target gene	reagent no.	total luciferase, z-score	call
1	CPLX3 (GeneID 594855)	1	1.19	inactive
2	CPLX3 (GeneID 594855)	2	-0.39	inactive
3	CPLX3 (GeneID 594855)	3	-0.463	inactive
4	LYVE1 (GeneID 10894)	1	-0.857	inactive
5	LYVE1 (GeneID 10894)	2	-0.109	inactive
6	LYVE1 (GeneID 10894)	3	1.05	inactive
7	PIGO (GeneID 84720)	1	-0.687	inactive
8	PIGO (GeneID 84720)	2	0.641	inactive
9	PIGO (GeneID 84720)	3	0.193	inactive
10	CPNE4 (GeneID 131034)	1	0.0708	inactive
11	CPNE4 (GeneID 131034)	2	-1.29	inactive
12	CPNE4 (GeneID 131034)	3	-0.0918	inactive
13	NAA30 (GeneID 122830)	1	-0.884	inactive
14	NAA30 (GeneID 122830)	2	-0.0721	inactive
15	NAA30 (GeneID 122830)	3	-1.37	inactive
16	C11orf42 (GeneID 160298)	1	0.746	inactive
17	C11orf42 (GeneID 160298)	2	-0.267	inactive
18	C11orf42 (GeneID 160298)	3	1.12	inactive
19	SOX12 (GeneID 6666)	1	-0.915	inactive
20	SOX12 (GeneID 6666)	2	0.0669	inactive
21	SOX12 (GeneID 6666)	3	1.02	inactive
22	GHRH (GeneID 2691)	1	2.11	inactive
23	GHRH (GeneID 2691)	2	-1.87	inactive
24	GHRH (GeneID 2691)	3	-1.13	inactive
25	SUCO (GeneID 51430)	1	-0.0568	inactive
26	SUCO (GeneID 51430)	2	2.15	inactive
27	SUCO (GeneID 51430)	3	0.31	inactive
28	RGMB-AS1 (GeneID 503569)	1	0.605	inactive
29	RGMB-AS1 (GeneID 503569)	2	0.591	inactive
30	RGMB-AS1 (GeneID 503569)	3	-1.07	inactive
31	ZNF146 (GeneID 7705)	1	-0.472	inactive
32	ZNF146 (GeneID 7705)	2	-0.856	inactive
33	ZNF146 (GeneID 7705)	3	0.444	inactive
34	IER5L (GeneID 389792)	1	0.173	inactive
35	IER5L (GeneID 389792)	2	-0.439	inactive
36	IER5L (GeneID 389792)	3	-1.74	inactive

The list goes on; the last 7 above are carried over.
no.	Target gene	reagent no.	total luciferase, z-score	call
30	RGMB-AS1 (GeneID 503569)	3	-1.07	inactive
31	ZNF146 (GeneID 7705)	1	-0.472	inactive
32	ZNF146 (GeneID 7705)	2	-0.856	inactive
33	ZNF146 (GeneID 7705)	3	0.444	inactive
34	IER5L (GeneID 389792)	1	0.173	inactive
35	IER5L (GeneID 389792)	2	-0.439	inactive
36	IER5L (GeneID 389792)	3	-1.74	inactive
37	KIAA1671 (GeneID 85379)	1	4.25	active
38	KIAA1671 (GeneID 85379)	2	0.33	inactive
39	KIAA1671 (GeneID 85379)	3	0.00791	inactive
40	KIAA1671 (GeneID 85379)	4	-2.13	inactive
41	KIAA1671 (GeneID 85379)	5	0.591	inactive
42	KIAA1671 (GeneID 85379)	6	-0.247	inactive
43	SLC30A6 (GeneID 55676)	1	1.95	inactive
44	SLC30A6 (GeneID 55676)	2	0.454	inactive
45	SLC30A6 (GeneID 55676)	3	-0.335	inactive
46	MRPS27 (GeneID 23107)	1	0.397	inactive
47	MRPS27 (GeneID 23107)	2	-0.743	inactive
48	MRPS27 (GeneID 23107)	3	0.653	inactive
49	TMPPE (GeneID 643853)	1	-0.0926	inactive
50	TMPPE (GeneID 643853)	2	-1.27	inactive
51	TMPPE (GeneID 643853)	3	1.75	inactive
52	LINC00336 (GeneID 401253)	1	0.453	inactive
53	LINC00336 (GeneID 401253)	2	-1.51	inactive
54	LINC00336 (GeneID 401253)	3	1.72	inactive
55	ADRA2B (GeneID 151)	1	1.93	inactive
56	ADRA2B (GeneID 151)	2	0.869	inactive
57	ADRA2B (GeneID 151)	3	-0.75	inactive
58	CYP4F11 (GeneID 57834)	1	1.9	inactive
59	CYP4F11 (GeneID 57834)	2	0.408	inactive
60	CYP4F11 (GeneID 57834)	3	-0.485	inactive
61	ZNF668 (GeneID 79759)	1	2.83	inactive
62	ZNF668 (GeneID 79759)	2	1.41	inactive
63	ZNF668 (GeneID 79759)	3	1.01	inactive
64	MATCAP2 (GeneID 23366)	1	0.463	inactive
65	MATCAP2 (GeneID 23366)	2	0.298	inactive
66	MATCAP2 (GeneID 23366)	3	1.22	inactive
67	EPPK1 (GeneID 83481)	1	-1.41	inactive
68	EPPK1 (GeneID 83481)	2	0.883	inactive
69	EPPK1 (GeneID 83481)	3	-2.08	inactive
70	PUM2 (GeneID 23369)	1	-0.298	inactive
71	PUM2 (GeneID 23369)	2	-0.404	inactive
72	PUM2 (GeneID 23369)	3	-0.151	inactive
73	FUT5 (GeneID 2527)	1	-0.61	inactive
74	FUT5 (GeneID 2527)	2	0.159	inactive
75	FUT5 (GeneID 2527)	3	0.0148	inactive
